Results: patent publication US20080027139A1, “Use of Alpha-Ketoglutarate and Related Compounds” (priority 2004, published 2008)
No dose or concentration is given here for some results. Marks after values point to notes of the source that are not given here.

Experiment: Experiment II: body weight of rats on cholesterol and lard enriched fodder
Assay type: in vivo, rat
Settings: day 120, cholesterol/lard diet, mean ± S.E.M

With `O=C(O)CCC(=O)C(=O)O` [AKG, alpha-ketoglutaric acid] the “Body weight of rats” value (female rats, AKG dose 0.1 from day 61 for 60 days) was 355.6 ± 6.62 g, the “Body weight of rats” value (female rats, AKG dose 1.0 from day 61 for 60 days) was 350.8 ± 9.7 g and the “Body weight of rats” value (male rats, AKG dose 0.1 from day 61 for 60 days) was 519.2 ± 7.39^a g. For the same compound, the “Body weight of rats” value (male rats, AKG dose 1.0 from day 61 for 60 days) was 462.1 ± 0.9^b g.
